# Measured values published in patent US20190316124A1.
# The chains behind the UniProt entries cited, without tags or fusion partners. Residues count along the entry.
# UniProt P07356, residues 2-339: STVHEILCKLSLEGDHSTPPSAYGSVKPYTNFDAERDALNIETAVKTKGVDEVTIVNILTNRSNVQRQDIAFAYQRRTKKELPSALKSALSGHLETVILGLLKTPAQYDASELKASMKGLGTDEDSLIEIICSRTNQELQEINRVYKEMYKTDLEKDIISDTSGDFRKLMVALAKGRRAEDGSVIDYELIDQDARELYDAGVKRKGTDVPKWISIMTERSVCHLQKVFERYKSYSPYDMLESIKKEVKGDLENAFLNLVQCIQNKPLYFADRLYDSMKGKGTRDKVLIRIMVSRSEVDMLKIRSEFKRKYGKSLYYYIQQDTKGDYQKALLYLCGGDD
# No constants are given. Whether binding was seen depends on the method and setting. In cells and extracts the contact can be indirect. Some binding calls cover weakened binding; strength is not graded here.
# T1: Semaphorin 3D (Sema3D), endogenous in mouse KPC pancreatic ductal adenocarcinoma cells (mouse) (UniProt Q8BH34)
# T1 sequence (looked up): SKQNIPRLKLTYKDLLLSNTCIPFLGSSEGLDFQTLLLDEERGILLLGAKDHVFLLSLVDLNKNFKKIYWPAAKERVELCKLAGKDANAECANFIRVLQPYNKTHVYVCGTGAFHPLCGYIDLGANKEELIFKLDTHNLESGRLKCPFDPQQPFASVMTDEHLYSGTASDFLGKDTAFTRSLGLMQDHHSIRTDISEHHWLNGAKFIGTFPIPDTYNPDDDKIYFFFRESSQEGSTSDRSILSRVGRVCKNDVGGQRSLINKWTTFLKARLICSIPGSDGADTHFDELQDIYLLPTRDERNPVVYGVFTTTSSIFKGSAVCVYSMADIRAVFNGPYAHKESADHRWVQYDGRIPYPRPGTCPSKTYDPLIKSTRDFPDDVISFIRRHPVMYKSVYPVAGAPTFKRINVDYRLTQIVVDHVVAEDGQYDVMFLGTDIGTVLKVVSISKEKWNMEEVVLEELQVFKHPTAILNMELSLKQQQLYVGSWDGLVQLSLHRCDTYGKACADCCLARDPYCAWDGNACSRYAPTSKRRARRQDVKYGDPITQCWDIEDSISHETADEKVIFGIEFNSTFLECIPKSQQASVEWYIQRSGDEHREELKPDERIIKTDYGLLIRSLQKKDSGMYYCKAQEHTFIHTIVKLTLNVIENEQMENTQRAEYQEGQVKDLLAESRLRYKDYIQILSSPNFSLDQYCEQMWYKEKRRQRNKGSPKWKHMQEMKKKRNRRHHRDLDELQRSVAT
# What was measured:
# [1] = target: T1, Semaphorin 3D (Sema3D), endogenous in mouse KPC pancreatic ductal adenocarcinoma cells (mouse); test: coimmunoprecipitation with cross-linked AnxA2 antibodies from KPC cell lysate, Western blot
# [2] = target: neuropilin 1 (NP-1), endogenous in mouse KPC PDA cells (mouse) (UniProt P97333); test: coimmunoprecipitation with anti-Sema3D antibodies from KPC cell lysate, Western blot
# [3] = target: neuropilin 1 (NP-1), endogenous in mouse KPC PDA cells (mouse) (UniProt P97333); test: coimmunoprecipitation from KPC cell lysate, Western blot (FIG. 14)
Molecule,binding [1],binding [2],binding [3]
"annexin A2 (AnxA2), endogenous in mouse KPC pancreatic ductal adenocarcinoma cells (from UniProt P07356 2-339)",binds,,
"Semaphorin 3D (Sema3D), endogenous in mouse KPC pancreatic ductal adenocarcinoma cells (ligand, UniProt Q8BH34 38-777, looked up) SKQNIPRLKLTYKDLLLSNTCIPFLGSSEGLDFQTLLLDEERGILLLGAKDHVFLLSLVDLNKNFKKIYWPAAKERVELCKLAGKDANAECANFIRVLQPYNKTHVYVCGTGAFHPLCGYIDLGANKEELIFKLDTHNLESGRLKCPFDPQQPFASVMTDEHLYSGTASDFLGKDTAFTRSLGLMQDHHSIRTDISEHHWLNGAKFIGTFPIPDTYNPDDDKIYFFFRESSQEGSTSDRSILSRVGRVCKNDVGGQRSLINKWTTFLKARLICSIPGSDGADTHFDELQDIYLLPTRDERNPVVYGVFTTTSSIFKGSAVCVYSMADIRAVFNGPYAHKESADHRWVQYDGRIPYPRPGTCPSKTYDPLIKSTRDFPDDVISFIRRHPVMYKSVYPVAGAPTFKRINVDYRLTQIVVDHVVAEDGQYDVMFLGTDIGTVLKVVSISKEKWNMEEVVLEELQVFKHPTAILNMELSLKQQQLYVGSWDGLVQLSLHRCDTYGKACADCCLARDPYCAWDGNACSRYAPTSKRRARRQDVKYGDPITQCWDIEDSISHETADEKVIFGIEFNSTFLECIPKSQQASVEWYIQRSGDEHREELKPDERIIKTDYGLLIRSLQKKDSGMYYCKAQEHTFIHTIVKLTLNVIENEQMENTQRAEYQEGQVKDLLAESRLRYKDYIQILSSPNFSLDQYCEQMWYKEKRRQRNKGSPKWKHMQEMKKKRNRRHHRDLDELQRSVAT",,binds,binds
